Data published in US11406709B2, “Therapeutic and research application of PDCL3” (TRUSTEES OF BOSTON UNIVERSITY, priority 2014, dated 2022).

B1: PDCL3: 239-amino acid human phosducin-like protein 3, SEQ ID NO: 1; expressed from cDNA in cells (protein, listed as Homo sapiens)
chain: MQDPNADTEWNDILRKKGILPPKESLKELEEEAEEEQRILQQSVVKTYEDMTLEELEDHEDEFNEEDERAIEMYRRRRLAEWKATKLKNKFGEVLEISGKDYVQEVTKAGEGLWVILHLYKQGIPLCALINQHLSGLARKFPDVKFIKAISTTCIPNYPDRNLPTIFVYLEGDIKAQFIGPLVFGGMNLTRDELEWKLSESGAIMTDLEENPKKPIEDVLLSSVRRSVLMKRDSDSEGD
modifications: Myc tag in some forms
notes: expressed from cDNA in cells
B2: acetylation resistant HA-tagged PDCL3: Mutant PDCL3 generated by removing the first methionine and adding HA tag (protein)
chain: QDPNADTEWNDILRKKGILPPKESLKELEEEAEEEQRILQQSVVKTYEDMTLEELEDHEDEFNEEDERAIEMYRRRRLAEWKATKLKNKFGEVLEISGKDYVQEVTKAGEGLWVILHLYKQGIPLCALINQHLSGLARKFPDVKFIKAISTTCIPNYPDRNLPTIFVYLEGDIKAQFIGPLVFGGMNLTRDELEWKLSESGAIMTDLEENPKKPIEDVLLSSVRRSVLMKRDSDSEGD
modifications: left off: small tags and cut ends

Tested on: HEK-293 cells
Assay: Cycloheximide (CHX)-chase assay, half-life of PDCL3
Assay type: cell-based, human
Details: CHX 20 μg/ml

Row | Molecule | half-life of PDCL3 after inhibition of its translation by CHX
1 | B1 | about 30 minutes
2 | B2 | quite stable up to 60 minutes
